PubChem BioAssay AID2685 (National Center for Advancing Translational Sciences (NCATS), 2010)
Out of some 320,000 compounds screened, about 2,100 (0.66%) were called active. Inconclusive means that the source gave no clear call. Such entries were picked first, then a sample of the others. Calls come from the whole dose curve; as a rule, active = well fitted inhibition curve with a large enough effect in the signal ratio, with a control signal flat (not every such curve was filed as active); inconclusive = small, poorly fitted or top-dose-only effect, or effect the other way, or a change in a side signal; inactive = flat fitted curve, though single readings scatter; the % refers to the signal ratio. Where the call is inconclusive, the potency comes from a doubtful curve fit.

Experiment: qHTS Assay for Lipid Storage Modulators in Drosophila S3 Cells
Conditions: BODIPY lipid droplet fluorescence, 18-24 h, cells fed with added oleic acid; lipid storage change, negative = inhibition: at 46.1 µM (top of the series) unless noted
Method in brief: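 Drosophila S3 cells loaded with oleic acid (400 uM, as added) and compounds at several concentrations; lipid droplets imaged by 488-nm laser-scanning cytometry, 500–530 nm intensity and object ratio to cell channel. Percent activity normalized to 20 uM Triacsin C.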
% is set by controls: 0 for no effect and ±100 for the full control effect; potency is the fitted concentration of half-maximal effect.

Compound | lipid storage change, negative = inhibition | Potency
CCOc1cc(C2C3=C(CC(C)(C)CC3=O)N(CCOC)C3=C2C(=O)CC(C)(C)C3)ccc1O | inconclusive: -7.58% | –
Cc1cccc(NC(=O)Cn2c(=O)n(Cc3ccccc3)c(=O)c3c(C)c(C)sc32)c1 | – | inconclusive: 29.1 µM [falling, single point]
COc1ccc(S(=O)(=O)N(C)c2ccc(C(=O)N3CCCCC3)cc2)cc1OC | inactive | –
O=C(OCc1ccccc1)c1cn(-c2ccccc2)nc1-c1ccncc1 | inconclusive: 257% | –
O=C(COC(=O)c1ccccc1Br)NCc1ccccc1 | – | inconclusive: 23.1 µM [activator, single point]
CC(C(=O)N1CCCC1)c1ccc([N+](=O)[O-])cc1 (stereo not given) | inconclusive: -7.1% | –
Cc1[nH]nc(N2CCCCC2)c1[N+](=O)[O-] | inconclusive: 9.02% | –
COc1ccc(S(=O)(=O)N2CCN(C(=O)C3CCCCC3)CC2)cc1 | inconclusive: 36.5% | –
O=C(CCCN1C(=O)/C(=C/c2ccccc2Cl)SC1=S)NNC(=O)c1cccnc1 | inconclusive: 26.7% | –
COc1ccc(NC(=O)CSc2nnc(CNC(=O)COc3ccc(Cl)cc3)o2)cc1 | inconclusive: -14.1% | –
Cc1ccc(-c2nc(-c3ccccc3)no2)c(Cl)c1 | inconclusive: 17.2% [at 9.22 µM] | –
COc1ccc2c(c1)[C@H]1[C@H](CO2)[C@H](c2ccccc2)[C@]2(C)C(=O)Nc3cc(OC)c(OC)cc3C(=O)N12 | – | inconclusive: 29.1 µM [falling, single point]
[N-]=[N+]=NC1c2ccccc2C(=O)N1Cc1ccccc1 (stereo not given) | – | inconclusive: 29.1 µM [activator, single point]
COc1ccc(CCNC(=O)NCCc2c[nH]c3ccccc23)cc1OC | inconclusive: -25.3% | –
COc1ccc(C(=O)NCC(=O)n2nc(C)cc2C)cc1OC | – | inconclusive: 32.6 µM [falling, partial curve, poor fit]
CC(C)(C)OC(=O)NCCCC[C@@H](C(=O)N1CCN(C(=O)OC(C)(C)C)CC1)n1cc(C(CO)NC(=O)OC(C)(C)C)nn1 (stereo not given in full) | inconclusive: 38.3% | –
COc1ccc(S(=O)(=O)N2CCCCC2)cc1NC(=O)C1CCCC1 | inconclusive: 107% | –
CC(C)(C)c1nc2sc3c(c2c(=O)o1)CCCC3 | inconclusive: 30.7% | –
COc1cc2c(cc1OC)C(C)N(C(=O)c1ccc(Cl)c(S(=O)(=O)N3CCCCC3)c1)CC2 (stereo not given) | inconclusive: -31.5% | –
O=C(NCC(c1ccco1)N1CCOCC1)c1cccc([N+](=O)[O-])c1 (stereo not given) | inconclusive: -24.9% | –
NC(=O)c1cc([N+](=O)[O-])ccc1NCc1cnccn1 | inconclusive: 90.7% | –
Cc1ccc(N(CC(=O)NCc2ccccc2)C(=O)CCC(=O)Nc2ccccn2)cc1 | – | inconclusive: 6.51 µM [falling, single point]
N#Cc1ccsc1NC(=O)c1ccc(Cl)c([N+](=O)[O-])c1 | – | inconclusive: 16.4 µM [falling, partial curve]
Cc1ccc(Cn2c(CN3CCOCC3)nc3c2c(=O)n(C)c(=O)n3C)cc1 | inactive | –
OCCN(Cc1ccccc1)Cc1cccc(F)c1 | inactive | –

Compound | lipid storage change, negative = inhibition | Potency
Oc1ccccc1Nc1nc(NCc2ccco2)c2ccccc2n1 | inconclusive: -17.7% | –
CCOc1ccc(S(=O)(=O)N2CCC(C(=O)OC(C)C(=O)NC3CCCCC3C)CC2)cc1 (stereo not given) | inconclusive: -51.1% | –
COc1ccc(C(C(=O)NC2CCCCC2)N(C(=O)c2sc(C)nc2C)c2ccc(OC)cc2)cc1 (stereo not given) | – | inconclusive: 23.1 µM [activator, single point]
O=C(CSc1ccccc1F)NC1CCS(=O)(=O)C1 (stereo not given) | inconclusive: -59.1% | –
CN(C)/C=C(\C=O)c1ncc(C(F)(F)F)cc1Cl | inconclusive: -64.3% | –
O=C(/C=C/c1ccco1)NC(=S)Nc1cccc([N+](=O)[O-])c1 | inconclusive: 28.6% | –
CC(C)NC(=O)C(=O)Nc1ccc2c(c1)N(S(=O)(=O)c1cccs1)CCC2 | inconclusive: -34.1% [at 0.0737 µM] | –
COc1cccc(C(=O)NC(=O)Nc2cc(C)[nH]n2)c1 | inconclusive: 28.7% | –
O=C(c1ccccc1)c1ccc2nc(-c3ccco3)c(-c3ccco3)nc2c1 | – | inconclusive: 29.1 µM [falling, single point]
COc1ccc(-c2cc(C(F)(F)F)n3ncc(C(=O)NCc4ccco4)c3n2)cc1 | inconclusive: 6.8% | –
O=C(NCCc1ccccc1)c1ccc2c(c1)N(Cc1ccccc1)CCS2 | inconclusive: 191% | –
O=C(Nc1c(F)cccc1F)c1ccc2c(c1)CCN2S(=O)(=O)c1ccccc1 | inconclusive: 98.5% | –
Cc1nn(CC(=O)N(C)C)c(=O)c2ccccc12 | inconclusive: 6.38% | –
O=C(Cn1c(=O)oc2ccccc21)NC(=O)NCc1ccccc1 | – | inconclusive: 16.4 µM [activator, single point]
COc1ccc(C(C(=O)NC(C)(C)C)N(CCO)C(=O)CCC(=O)Nc2cc(C)on2)cc1 (stereo not given) | – | inconclusive: 3.66 µM [falling, partial curve]
Fc1ccc(NCc2nnc(SCc3nnc(-c4ccccc4)o3)n2Cc2ccccc2)cc1 | inconclusive: -4.93% | –
O=C(CN(Cc1ccccc1)S(=O)(=O)c1ccc(Br)cc1)NCC1CCCO1 (stereo not given) | inconclusive: -80.2% | –
CC(=O)N(C)Cc1ccc(C(=O)CSc2nnc(C3CC3)n2C2CC2)cc1 | – | inconclusive: 29.1 µM [activator, single point]
COc1ccc(C2C(C#N)=C(/N=C/N3CCN(C)CC3)OC3=C2C(=O)CC(C)(C)C3)cc1 (stereo not given) | – | inconclusive: 18.4 µM [falling, single point]
Cc1ccc(C(=O)NCCCc2ccccc2)c(C)c1 | inconclusive: 7.7% | –
CC1Cc2ccccc2N1S(=O)(=O)c1cccc(C(=O)Nc2cccnc2)c1 (stereo not given) | inconclusive: -46.1% | –
CCN1C(=O)N[C@@H](c2ccc(Br)cc2)C(C(=O)OC)=C1C | inconclusive: 9.11% | –
COc1cc(-c2cc(C(=O)Nc3nc4ccccc4s3)c3ccccc3n2)cc(OC)c1OC | – | inconclusive: 25.9 µM [activator, single point]
CCCCOC(=O)Nc1ccc(S(=O)(=O)Nc2nccs2)cc1 | inconclusive: -0.123% | –
Nc1nc(C(=O)N2CCOCC2)nn1S(=O)(=O)c1ccc(Cl)cc1 | inconclusive: -13.6% | –

A second format for four compounds above:
Oc1ccccc1Nc1nc(NCc2ccco2)c2ccccc2n1
  lipid storage change, negative = inhibition: inconclusive: -17.7%
O=C(Cn1c(=O)oc2ccccc21)NC(=O)NCc1ccccc1
  Potency: inconclusive: 16.4 µM [activator, single point]
CC1Cc2ccccc2N1S(=O)(=O)c1cccc(C(=O)Nc2cccnc2)c1 (stereo not given)
  lipid storage change, negative = inhibition: inconclusive: -46.1%
COc1cc(-c2cc(C(=O)Nc3nc4ccccc4s3)c3ccccc3n2)cc(OC)c1OC
  Potency: inconclusive: 25.9 µM [activator, single point]

(continued)

Compound | lipid storage change, negative = inhibition | Potency
Cc1onc(-c2ccccc2)c1C(=O)NC1CC1 | inconclusive | –
COc1ccc(-c2cc(C(=O)NCCCN3CCOCC3)on2)cc1OC | inconclusive: -17.6% | –
COc1ccccc1C(=O)NC(=O)COC(=O)CN1C(=O)NC(C)(C)C1=O | inconclusive | –
COc1ccc(-n2c(C)cc(C(=O)CN3C(=O)NC4(CCCc5sccc54)C3=O)c2C)cc1 (stereo not given) | inconclusive: 9.28% | –
CN(Cc1ccccc1)c1nc2c(c(=O)[nH]c(=O)n2C)n1CCSc1nc2ccccc2[nH]1 | – | inconclusive: 0.461 µM [activator, full curve]
Cc1cc(OCC(=O)OCC(=O)N2CCc3ccccc3C2)ccc1Cl | – | inconclusive: 0.0517 µM [falling, full curve, poor fit]
CCN(CC)CCCn1c(C)cc2c(c1=O)C(c1cc(OC)c(OC)cc1OC)C(C#N)=C(N)O2 (stereo not given) | inconclusive: -30.6% | –
CCOc1ccc2nc(SCC(=O)Nc3cccc(S(=O)(=O)NC4=NCCCCC4)c3)[nH]c2c1 | – | inconclusive: 0.651 µM [activator, full curve, poor fit]
COc1ccccc1N1CCN(C(c2cccs2)c2nnnn2C2CCCC2)CC1 (stereo not given) | inactive | –
COCCNC(=O)c1cccc(OC2CCN(Cc3ccc(C(=O)OC)cc3)CC2)c1 | – | inconclusive: 29.1 µM [activator, single point]
CCC(C)[C@H](NC(=O)NC1CCCc2ccccc21)C(=O)OC (stereo not given in full) | inconclusive: 23.6% | –
CCCN(C(=O)c1cc(Cl)nc2ccccc12)C1CCS(=O)(=O)C1 (stereo not given) | inconclusive | –
CCCCOc1c(Br)cc(/C=C2\N=C(C)OC2=O)cc1OCC | inconclusive: 1.47% | –
CCCCN(C(=O)c1cccc(S(=O)(=O)N2CCCC2)c1)c1c(N)n(CCC)c(=O)[nH]c1=O | inconclusive: -9.06% | –
NS(=O)(=O)c1ccc(NC(=S)NNC(=O)c2ccc(Br)o2)cc1 | inconclusive: 66% | –
CCOc1ccccc1OCCCC(=O)Nc1cccc(S(=O)(=O)N2CCOCC2)c1 | – | inconclusive: 13 µM [falling, partial curve]
CCOC(=O)C1CCCN(C(=O)c2cc3c(=O)n4ccccc4nc3s2)C1 (stereo not given) | – | inconclusive: 4.11 µM [falling, partial curve]
Cc1ccc(CCN2CC(C(=O)NCCC(C)C)CC2=O)cc1 (stereo not given) | – | inconclusive: 32.6 µM [falling, single point]
CN(C(=O)C1CCOC1)c1nnc(-c2cnccn2)s1 (stereo not given) | inactive: -5.36% [at 9.22 µM] | –
CC(C)COP(=O)(c1ccc(N(C)C)cc1)C(O)c1ccccc1F (stereo not given) | inconclusive: 43.9% | –
CNC(=O)CSCCn1c(SCC(=O)NC)nc2ccccc2c1=O | inconclusive: -7.53% | –
CC(=O)c1cccc(NC(=O)c2ccc(NC(=O)CC3SC(N4CCCCC4)=NC3=O)cc2)c1 (stereo not given) | inconclusive: 31.5% [at 0.00295 µM] | –
COc1ccc2nc(C3CCCCC3)nc(C3CCCCC3)c2c1 | inconclusive: 4.59% | –
Cc1ccc(S(=O)(=O)NC2=NCN(CCN3CCOCC3)CN2)cc1 | inconclusive: -6.5% | –
O=C(OCC(=O)N1CCN(c2ccccc2)CC1)c1ccc2ncsc2c1 | – | inconclusive: 29.1 µM [activator, single point]
